Screen size: about 350,000 compounds; about 1,200 (0.34%) were called active. Inconclusive means that the source gave no clear call. Such entries were picked first, then a sample of the others. Calls follow the shape of the dose curve; as a rule, active = well fitted inhibition curve with a large enough effect; inconclusive = small, poorly fitted or top-dose-only effect; inactive = no such curve, though single readings can be large or run the other way. A potency beside an inconclusive call is a rough fit, not a confirmed value.
What follows are compounds tested against DNA repair nuclease/redox regulator APEX1 (Homo sapiens) (UniProt P27695) (assay: qHTS Assay for Inhibitors of the Human Apurinic/apyrimidinic Endonuclease 1 (APE1)). Conditions: recombinant APE1, TAMRA/BHQ-2 abasic DNA cleavage fluorescence; series mostly up to 65.8 µM.
How it was run: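 Measures dequenching upon AP-site incision of a 5'-TAMRA/3'-BHQ-2 THF-containing duplex, 50 nM; human APE1 0.75 nM after 15 min room-temperature exposure to compound; kinetic three-point read at one-minute spacing.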
Also: nearly all actives have a fitted effect of over 55% in size.
Potency is read from the fitted curve at half-maximal effect.

The chains behind the UniProt entries cited, without tags or fusion partners.
UniProt P27695, whole entry, looked up: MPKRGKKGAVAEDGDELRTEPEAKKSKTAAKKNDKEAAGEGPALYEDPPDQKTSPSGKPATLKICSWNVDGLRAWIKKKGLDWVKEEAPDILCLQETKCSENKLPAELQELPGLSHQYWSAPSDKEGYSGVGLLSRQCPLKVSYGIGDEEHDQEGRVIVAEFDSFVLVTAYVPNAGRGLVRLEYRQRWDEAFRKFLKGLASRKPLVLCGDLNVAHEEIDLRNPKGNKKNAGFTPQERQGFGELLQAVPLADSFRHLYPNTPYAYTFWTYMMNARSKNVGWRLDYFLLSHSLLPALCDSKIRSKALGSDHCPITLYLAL

Q: `COc1ccc(S(=O)(=O)N2CCC(C(=O)N3CCCCC3)CC2)cc1OC` was tested. Which Potency did it give?
A: inconclusive: 10 µM [inhibitor, single point]

Q: How did the Potency turn out when `COc1ccc(CCNC(=O)c2ccc(CNc3c(N4CCOCC4)c(=O)c3=O)cc2)cc1OC` was run?
A: inconclusive: 39.8 µM [inhibitor, single point]

Q: Which Potency does the source give for `O=C1Nc2ccccc2Oc2cc([N+](=O)[O-])ccc21` here?
A: inconclusive: 20 µM [inhibitor, single point]

Q: For `COC(=O)[C@H]1C[C@@H]1[C@H](NS(=O)(=O)c1ccccc1)c1ccccc1`, which Potency is on record?
A: inconclusive: 8.91 µM [inhibitor, single point]

Q: How did the Potency turn out when `COc1ccc2c(c1)c1c(n2C(C)=O)C(OC(C)=O)=NCC1` was run?
A: inactive

Q: With `O=C(O)c1ccc(N2Cc3ccccc3C2)cc1O` as the compound, how does the Potency read?
A: inactive

Q: `O=C(N/N=C\c1c(O)ccc2ccccc12)c1ccc(Cn2cccn2)o1` was tested. Which Potency did it give?
A: inconclusive: 28.2 µM [inhibitor, partial curve]

Q: Which Potency does the source give for `COc1cc(-c2cc(=O)c3c(O)c(OC)c(OC)cc3o2)cc(OC)c1O` here?
A: inconclusive: 25.1 µM [inhibitor, partial curve]

Q: How did the Potency turn out when `COc1cccc(OCc2cc(C3Nc4ccccc4C(=O)N3Cc3ccco3)ccc2OC)c1` (configuration not stated) was run?
A: inconclusive: 35.5 µM [inhibitor, partial curve, poor fit]

Q: With `CC(=O)C1=C(C)NC(=O)NC1c1cccc(O)c1` (configuration not stated) as the compound, how does the Potency read?
A: inconclusive: 44.7 µM [inhibitor, single point]

Q: Which Potency does the source give for `CC(C)CNC(=O)c1cccc(NC(=O)C2CCCO2)c1` (configuration not stated) here?
A: inconclusive: 0.316 µM [inhibitor, full curve, poor fit]

Q: `Cc1cccc(Oc2ccccc2NS(=O)(=O)c2ccc(CCC(=O)O)cc2)c1` was tested. Which Potency did it give?
A: inconclusive: 21.2 µM [inhibitor, single point]

Q: How did the Potency turn out when `O=C(NC1(O)C(=O)c2ccccc2C1=O)c1ccccc1` was run?
A: inconclusive: 20 µM [inhibitor, single point]

Q: For `COC(=O)c1ccc(/C=N/OCC(=O)NC2CCCC(C)C2C)cc1` (configuration not stated), which Potency is on record?
A: inconclusive: 28.2 µM [inhibitor, partial curve]

Q: Which Potency does the source give for `CC(C)C[C@@H](COCc1cccc(Cl)c1)N1CCN(C(=O)c2cccc(C(F)(F)F)c2)CCC1=O` here?
A: inconclusive: 0.794 µM [inhibitor, partial curve]

Q: With `O=C(COn1nnc2ccc(C(F)(F)F)cc21)Nc1nnc(-c2ccccc2)o1` as the compound, how does the Potency read?
A: inconclusive: 56.2 µM [inhibitor, partial curve, poor fit]

Q: `CCCCC/C=C\C/C=C\CCCCCCCC(=O)NCC(=O)O` was tested. Which Potency did it give?
A: inconclusive: 0.126 µM [inhibitor, full curve]

From PubChem BioAssay AID2517 (National Center for Advancing Translational Sciences (NCATS), 2010)
